Assay results taken from patent US20120128745A1, “BENZYLIDENE MALONATES” (BASF SE, priority 2009, published 2012).
At least one compound was matched to its structure with a doubt left.

Columns and labels:
[1] = photostability of 4-Methoxybenzylidene-di-tert-butyl-malonate in O/W emulsion film under solar simulator, HPLC; format: physicochemical; conditions: formulation A, 20 μm film on quartz plates, irradiated 1 h (5 MED), 2 h (10 MED), 4 h (20 MED) and 10 h (50 MED); in all cases
Description: The photostability of Butyl 4-Methoxybenzylidene-di-tert-butyl-malonate is determined by spreading the emulsion as a 20 μm thick film on four quartz plates. The plates are irradiated using a solar simulator for 1 h (5 MED), 2 h (10 MED), 4 h (20 MED) and 10 h (50 MED). After the indicated irradiation times one of the quartz plate is plunged into 5 ml of tetrahydrofurane. The amount of UV-B filter 4-Methoxybenzylidene-di-tert-butyl-malonate is then determined using high performance liquid chromatography. The residual 4-Methoxybenzylidene-di-tert-butyl-malonate is determined to be 100% (±1%) in all cases.

[2] = stabilization (photostability) of Butyl Methoxydibenzoylmethane in O/W emulsion film under solar simulator, HPLC; format: physicochemical; conditions: formulation B vs comparative formulation C, 2 h (10 MED)
Description: Testing of stabilization of Butyl Methoxydibenzoylmethane (BMDBM, Parsol 1789):
The photostability of Butyl Methoxydibenzoylmethane is determined by spreading the emulsion as a 20 μm thick film on a quartz plate. The film is irradiated using a solar simulator for 2 h (10 MED). After irradiation, the quartz plate is plunged into 5 ml of tetrahydrofurane. The amount of UV-A filter Butyl Methoxydibenzoylmethane is then determined using high performance liquid chromatography. The residual Butyl Methoxydibenzoylmethane is determined to be 47%.
The photostability of Butyl Methoxydibenzoylmethane in the comparative formulation C is determined as described above for formulation B. The residual Butyl Methoxydibenzoylmethane is determined to be 4%.

With `COc1ccc(C=C(C(=O)OC(C)(C)C)C(=O)OC(C)(C)C)cc1` [Example 18, 4-Methoxybenzylidene-di-tert-butyl-malonate] the “residual 4-Methoxybenzylidene-di-tert-butyl-malonate” value [1] was 100% and the “recovery of Butyl Methoxydibenzoylmethane in the presence of the compound versus comparative formulation C” value [2] was 11.75 times higher.
